Measured values published in PubChem BioAssay AID1347075 (National Center for Advancing Translational Sciences (NCATS), 2019).
The campaign covered roughly 400,000 compounds. About 5,500 (1.4%) were called active. This list was built around the results that the source calls inconclusive (neither active nor inactive); the mix of calls is not that of the screen. Calls come from the whole dose curve; as a rule, active = well fitted cell-killing curve with a large enough effect; inconclusive = small, poorly fitted or top-dose-only effect, or effect the other way; inactive = flat fitted curve, though single readings scatter. Where the call is inconclusive, the potency comes from a doubtful curve fit.

test: qHTS assay for MDR1-selective chemotherapeutics: Primary screen using the parental adenocarcinoma cell KB-3-1; conditions: KB-3-1 viability, CellTiter-Glo ATP luminescence, 72 h; activity change, negative = cytotoxic: at 46.1 µM (top of the series); note: nearly all actives have a fitted effect of over 60% in size
Summary of the method: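 Cytotoxicity measured as CellTiter-Glo luminescence after 72 h at 37 C. Compound titrations were pinned onto drug-naive KB-3-1 parental adenocarcinoma cells grown in DMEM with 10% FBS, and normalized data fitted to concentration-response curves.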
% is set by controls: 0 for no effect and ±100 for the full control effect; potency is the fitted concentration of half-maximal effect.

| SMILES | Potency | activity change, negative = cytotoxic |
| --- | --- | --- |
| COc1ccc2nc(N=Nc3ccc(N(C)C)cc3)sc2c1 | active: 13 µM |  |
| CC(=O)c1c(C)[nH]c(C(=O)OCc2ccc(F)cc2Cl)c1C | inconclusive: 20.6 µM [cytotoxic, single point] |  |
| O=C(Nc1cc(Cl)ccc1-n1cncn1)c1ccc([N+](=O)[O-])s1 | inconclusive: 16.4 µM [cytotoxic, partial curve] |  |
| CC#CC(=O)N1CCC(n2nccc2NC(=O)CCc2ccccc2)CC1 |  | inactive: -10.1% |
| COc1ccc(COC(=O)c2cc([N+](=O)[O-])ccc2N2CCOCC2)cc1F | active: 0.13 µM |  |
| CC(c1ccccc1)N1C(=O)c2cccnc2C1=O (centres undefined) |  | inactive: 7.34% |
| CCCCn1c(N)c(N(CCC(C)C)C(=O)c2cccc(N3C(=O)c4ccccc4C3=O)c2)c(=O)[nH]c1=O |  | inconclusive: 0.426% |
| CN1CCn2cnc(C(=O)NCC(=O)OC(C)(C)C)c2C1=O | inconclusive: 25.9 µM [rising, single point] |  |
| O=c1c2oc3ccccc3c2n(Cc2ccccc2F)c(=O)n1Cc1ccco1 |  | inactive: -0.873% |
| Cc1cccc(N2CCN(C(=O)Nc3ccc(F)cc3)CC2C)c1 (centres undefined) |  | inactive: 0.6% |
| CCN(CC(=O)Nc1cccc(OC)c1)c1ncnc2sc(C)c(C)c12 | inconclusive: 16.4 µM [cytotoxic, single point] |  |
| CCc1nc2ccc(C(=O)NCc3ccc4c(c3)OCO4)cn2c1N(CC)Cc1cccc(Br)c1 | inconclusive: 29.1 µM [cytotoxic, single point] |  |
| O=C(c1cc(-c2ccc(Cl)cc2)n[nH]1)N1CCN(C(=O)c2ccco2)CC1 | inconclusive: 29.1 µM [rising, single point] |  |
| CCCn1cc(SCC(=O)Nc2nnc(C)s2)c2ccccc21 | inconclusive: 23.1 µM [cytotoxic, single point] |  |
| O=[N+]([O-])c1ccc(CN2CCN(c3ccc([N+](=O)[O-])cc3)CC2)cc1 | inconclusive: 20.6 µM [cytotoxic, partial curve, poor fit] |  |
| Cc1oc(-c2cccc(Cl)c2)nc1CN1CCC(C(=O)NCc2ccco2)CC1 | inconclusive: 29.1 µM [cytotoxic, single point] |  |
| CCCCN1CCCCC1C(=O)Nc1c(C)cccc1C (centres undefined) | inconclusive: 29.1 µM [cytotoxic, single point] |  |
| Cc1cccc(NC(=O)Cn2c(=O)n(Cc3ccc4c(c3)OCO4)c(=O)c3ccccc32)c1 |  | inactive: 2.31% |
| CC(=O)Nc1ccc(OCCCN2CCC(C(O)(c3ccccc3)c3ccccc3)CC2)cc1 |  | inactive: 1.51% |
| O=C(NCc1ccccn1)c1cc(S(=O)(=O)N2CCCCC2)ccc1Cl | inconclusive: 25.9 µM [cytotoxic, single point] |  |
| CSc1nc2ccc(S(=O)(=O)NC3CCCCC3)cc2s1 | inconclusive: 29.1 µM [cytotoxic, single point] |  |
| O=C(O)CCCc1ccc2c(c1)CCc1ccccc1-2 | active: 2.91 µM |  |

| SMILES | Potency | activity change, negative = cytotoxic |
| --- | --- | --- |
| O=C(CCCC(=O)Nc1cccc(Br)c1)N/N=C/c1cc([N+](=O)[O-])ccc1O | inconclusive: 20.6 µM [cytotoxic, single point] |  |
| Cc1ccc(S(=O)(=O)N2CCC(C(=O)N3CCCCCCC3)CC2)cc1C |  | inactive: -5.66% |
| Cc1ccc(Cl)cc1N1CCN(C(=O)CN(C2CCCCC2)S(C)(=O)=O)CC1 | inconclusive: 16.4 µM [cytotoxic, single point] |  |
| COc1ccc(-n2cc(-c3ccc(OC(F)F)cc3)[n+]3c2CCCCC3)cc1 | inconclusive: 25.9 µM [cytotoxic, partial curve, poor fit] |  |
| CCCCN1CC(c2nc3ccccc3n2CCCCOc2c(C)cccc2C)CC1=O (centres undefined) | inconclusive: 18.4 µM [cytotoxic, partial curve] |  |
| O=C1CCC(=O)N1CCCCCc1nc(-c2ccccc2)no1 | inconclusive: 23.1 µM [cytotoxic, single point] |  |
| Cc1cc(N(C)C)cc(C)c1/C=C/c1cc[n+](C)c2ccccc12 | active: 4.61 µM |  |
| CCOC(=O)c1[nH]c(C)c(C(=O)Nc2ccccc2C)c1C | inconclusive: 16.4 µM [cytotoxic, partial curve, poor fit] |  |
| COc1ccc([N+](=O)[O-])cc1Nc1c2ccccc2nc2ccccc12 | inconclusive: 25.9 µM [cytotoxic, partial curve, poor fit] |  |
| COc1ccc(N2C(=O)C(CC(N)=O)N(NC(=O)c3cccc(OC)c3)C2=S)cc1 (centres undefined) | inconclusive: 3.26 µM [cytotoxic, partial curve, poor fit] |  |
| COc1ccc(Cl)cc1NC(=O)CN1CCc2ccccc2C1 | inconclusive: 23.1 µM [cytotoxic, single point] |  |
| O=C1Nc2ccccc2/C1=C/c1cccnc1 | inconclusive: 29.1 µM [cytotoxic, single point] |  |
| O=C1c2[nH]nc(-c3ccccc3O)c2C(c2cccc(Cl)c2)N1CC1CCCO1 (centres undefined) | inconclusive: 18.4 µM [cytotoxic, single point] |  |
| CCOC(=O)CN1C(=O)C(O)(CC(=O)c2ccc3c(c2)CCCC3)c2ccccc21 (centres undefined) | inconclusive: 32.6 µM [cytotoxic, single point] |  |
| O=C(Nc1ccccc1)Nc1cccc2nsnc12 | inconclusive: 29.1 µM [cytotoxic, single point] |  |
| CC(C)CN(c1ccccc1)S(=O)(=O)c1nnc(NC(=O)c2ccco2)s1 |  | inactive: -9.01% |
| CCOc1ccc(NC(=O)COc2ccc(C(=O)NCCc3ccccc3)cc2)cc1 | inconclusive: 14.6 µM [rising, partial curve] |  |
| COc1ccc(-c2ccc(NC(=O)c3ccco3)cc2)nn1 | active: 10.3 µM |  |
| O=[N+]([O-])c1ccc(N2CCN(c3ccccc3Cl)CC2)cn1 | active: 5.17 µM |  |
| COc1cc(O)c(C(CC(=O)N2CCC(c3ccccc3)CC2)c2ccc3c(c2)OCO3)c(OC)c1 (centres undefined) | inconclusive: 35.5 µM [cytotoxic, partial curve, poor fit] |  |
| COc1cc(OC)c(NC(=O)c2oc3ccc4c(c3c2C)C(=O)CC(C)(C)O4)cc1Cl |  | inactive: 4.05% |
| CCC(C)NCCC(=O)Nc1ccc(Cl)c(S(=O)(=O)Nc2ccc(Cl)cc2)c1 (centres undefined) |  | inactive: -7.88% |

Reformatted: entries from further up
SMILES	Potency	activity change, negative = cytotoxic
O=[N+]([O-])c1ccc(CN2CCN(c3ccc([N+](=O)[O-])cc3)CC2)cc1	inconclusive: 20.6 µM [cytotoxic, partial curve, poor fit]	
Cc1oc(-c2cccc(Cl)c2)nc1CN1CCC(C(=O)NCc2ccco2)CC1	inconclusive: 29.1 µM [cytotoxic, single point]	
CCCCN1CCCCC1C(=O)Nc1c(C)cccc1C (centres undefined)	inconclusive: 29.1 µM [cytotoxic, single point]	
